Reference: paper PMC12341765 (Nature materials, 2021)
Where a sequence shows no end group, the ends are not given.

Experiment: peptide made by a vendor
Details: whole synthesis, RP-HPLC

Substance	final HPLC purity [%]
5F AM-GGLVPRGSGK(CPQ2)-PEG2-C	91.2
5F AM-GGPVPLSLVMGK(CPQ2)-PEG2-GC	90.9
K(N3)GGAC(Cy7)DDQNPWRAYLKLLFPTKTLLLKLLWkk	93.4
AC(Cy7)DDQNPWRAYLKLLFPTKTLLLKLLWkk	90.1
AC(Cy7)DDQNPWRAYLDLLFPTDTLLLDLLWkk	93.7
K(N3)GGACDDQNPWRAYLKLLFPTKTLLLKLLWkk	97.7
5F AM-GGPLGVRGKK(CPQ2)-PEG2-C	95.7
K(N3)GGAC(Cy7)DDQNPWRAYLDLLFPTDTLLLDLLWkk	91.0
5F AM-GGPVGLIGK(CPQ2)-PE G 2-C	91.6
5F AM-GGf-Pip-RSGGG K(CPQ 2)-PEG2-C	93.5
5F AM-GILSRIVGGGK(CPQ2)-PEG2-GC	90.7
K(N3)GGACDDQNPWRAYLDLLFPTDTLLLDLLWkk	91.8
5F AM-GSGSKIIGGGK(CPQ2)-PEG2-GC	92.0
ACDDQNPWRAYLKLLFPTKTLLLKLLWkk	92.2
5F AM-GGPVPLSLVMK(CPQ2)-PEG2-C	92.6
5F AM-GGPWGIWGQGK(CPQ2)-PEG2-C	91.8
5F AM-GGPLGLRSWK(CPQ2)-PEG2-C	91.8
5F AM-GGPQGIWGQK(CPQ2)-PEG2-C	90.3
ACDDQNPWRAYLDLLFPTDTLLLDLLWkk	91.2
5F AM-GGGSGRSANAKGK(CPQ2)-PEG2-GC	94.2
